Paper PMC7525442
No constants are given. Whether binding was seen depends on the method and setting. Binding seen in cells or lysates may run through a third protein. Some results given as binding are weak or reduced against the parent protein; the word gives no strength.

The chains behind the UniProt entries cited, without tags or fusion partners.
UniProt P17931: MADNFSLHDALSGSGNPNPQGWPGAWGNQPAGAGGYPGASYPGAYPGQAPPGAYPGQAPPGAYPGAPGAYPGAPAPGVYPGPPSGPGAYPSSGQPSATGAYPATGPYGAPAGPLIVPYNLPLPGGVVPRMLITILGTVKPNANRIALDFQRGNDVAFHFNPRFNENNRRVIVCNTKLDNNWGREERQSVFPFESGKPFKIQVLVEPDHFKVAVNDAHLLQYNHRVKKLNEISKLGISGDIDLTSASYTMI

Molecular target: galectin-3 (human (endogenous in PLC/PRF/5)) (UniProt P17931)
Experiment: co-IP; PLC/PRF/5 cells incubated with or without 3 µg/ml M2BPGi for 12 h and lysed with 1% Triton-X; 300 µg lysate protein with galectin-3 antibody for 2 h at 4 °C, then protein G beads; 5 washes; western blot for M2BP; only the binder purified

B1: Mac-2-binding protein glycan isomer (Wisteria floribunda agglutinin-positive Mac-2-binding protein) (protein, UniProt Q08380 19-585)
chain: VNDGDMRLADGGATNQGRVEIFYRGQWGTVCDNLWDLTDASVVCRALGFENATQALGRAAFGQGSGPIMLDEVQCTGTEASLADCKSLGWLKSNCRHERDAGVVCTNETRSTHTLDLSRELSEALGQIFDSQRGCDLSISVNVQGEDALGFCGHTVILTANLEAQALWKEPGSNVTMSVDAECVPMVRDLLRYFYSRRIDITLSSVKCFHKLASAYGARQLQGYCASLFAILLPQDPSFQMPLDLYAYAVATGDALLEKLCLQFLAWNFEALTQAEAWPSVPTDLLQLLLPRSDLAVPSELALLKAVDTWSWGERASHEEVEGLVEKIRFPMMLPEELFELQFNLSLYWSHEALFQKKTLQALEFHTVPFQLLARYKGLNLTEDTYKPRIYTSPTWSAFVTDSSWSARKSQLVYQSRRGPLVKYSSDYFQAPSDYRYYPYQSFQTPQHPSFLFQDKRVSWSLVYLPTIQSCWNYGFSCSSDELPVLGLTKSGGSDRTIAYENKALMLCEGLFVADVTDFEGWKAAIPSALDTNSSKSTSSFPCPAGHFNGFRTVIRPFYLTNSSGVD
modifications: glycosylation at N-linked sites (85–97 kDa form); WFA-binding glycoform
B1 was tested, and the binding was “binds”.
